PubChem BioAssay AID602196 | INSERM, 2012
Here is an unselected part of about 23,000 deposited reagents. 455 of all reagents (2%) were called active. 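Active includes both protection and sensitisation; some change values fall well beyond the stated -50 to +50 range.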 Entries without a mark were called inactive. The numbers tell different reagents against one gene apart. Not all columns of the deposit are shown. Not given: the amount of reagent.

Assay: 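Knock-downs that protect lung cancer cells from cisplatin or sensitise them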
System: human A549 lung cancer cells
Reagent: siRNA pair against human genes
Time to read-out: 48 h transfection before cisplatin; time from cisplatin to read-out not stated
Challenge: cisplatin at a dose killing half of control-siRNA cells; exact dose and duration not given
Measurement: 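Cisplatin cell death as a shift from the 50% death seen with control siRNA; siRNAs toxic or growth-blocking alone scored 0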
Scale: two-siRNA summed score (-2 to +2): higher = both siRNAs protect from cisplatin killing; -2 means both sensitise
Rule for the call: 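siRNAs harmful alone (LDH or WST-1) get 0; others get +1 for less and -1 for more cisplatin killing; genes are active when the two siRNAs give the same sign, summing to ±2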
Calls: active = both siRNAs shift cisplatin killing the same way; inactive = no consistent shift, or siRNA harmful alone

two-siRNA summed score (-2 to +2), by gene and reagent
ADCY1: #1 0
SLC17A8: #1 0
GOPC: #1 0; #2 0
ASB11: #1 1
LOC442217: #1 1
ZSWIM5: #1 1
RAP2C: #1 -1
FOXD3: #1 0
SUPT6H: #1 0
LOC221344: #1 1
PLEKHF1: #1 -1
MKRN4P: #1 0
TIMCC: #1 0
FXYD6: #1 0
DLL1: #1 0
MRPL45: #1 0
LOC389236: #1 0
ACACA: #1 1
LOC391555: #1 0
LHFPL6: #1 1
USP9X: #1 -1
LOC442621: #1 1
CYP17A1: #1 0
CELF4: #1 0
OR5D18: #1 0
LOC401490 (retired record): #1 0
SIK3: #1 0
ZNHIT2: #1 1
LOC389409: #1 1
GLIS2: #1 0
CLYBL: #1 1
MTRF1: #1 0
LINC01020: #1 -1
RHOC: #1 2 (active)
C5AR2: #1 0
TEX28: #1 1
LOC441752: #1 0
OR2G3: #1 0
OLR1: #1 -1
LOC442031: #1 2 (active)
PSMD10: #1 0
CTNNBIP1: #1 0
LOC440805: #1 1
USP17L2: #1 0
LOC442699: #1 1
LOC401440: #1 0
ABHD13: #1 0
LOC442530: #1 0
GPR161: #1 -1
LOC400552: #1 0
MT1F: #1 0; #2 0
SLC25A28: #1 -1
C3orf36: #1 0
LBX1: #1 1
AFMID: #1 0

Entries above whose gene name starts with U or u (2):
two-siRNA summed score (-2 to +2), by gene and reagent
USP9X: #1 -1
USP17L2: #1 0
